{"sequences": {"note": "By UniProt entry, the sequences of proteins in these tests, tags left out.", "UniProt P27540": "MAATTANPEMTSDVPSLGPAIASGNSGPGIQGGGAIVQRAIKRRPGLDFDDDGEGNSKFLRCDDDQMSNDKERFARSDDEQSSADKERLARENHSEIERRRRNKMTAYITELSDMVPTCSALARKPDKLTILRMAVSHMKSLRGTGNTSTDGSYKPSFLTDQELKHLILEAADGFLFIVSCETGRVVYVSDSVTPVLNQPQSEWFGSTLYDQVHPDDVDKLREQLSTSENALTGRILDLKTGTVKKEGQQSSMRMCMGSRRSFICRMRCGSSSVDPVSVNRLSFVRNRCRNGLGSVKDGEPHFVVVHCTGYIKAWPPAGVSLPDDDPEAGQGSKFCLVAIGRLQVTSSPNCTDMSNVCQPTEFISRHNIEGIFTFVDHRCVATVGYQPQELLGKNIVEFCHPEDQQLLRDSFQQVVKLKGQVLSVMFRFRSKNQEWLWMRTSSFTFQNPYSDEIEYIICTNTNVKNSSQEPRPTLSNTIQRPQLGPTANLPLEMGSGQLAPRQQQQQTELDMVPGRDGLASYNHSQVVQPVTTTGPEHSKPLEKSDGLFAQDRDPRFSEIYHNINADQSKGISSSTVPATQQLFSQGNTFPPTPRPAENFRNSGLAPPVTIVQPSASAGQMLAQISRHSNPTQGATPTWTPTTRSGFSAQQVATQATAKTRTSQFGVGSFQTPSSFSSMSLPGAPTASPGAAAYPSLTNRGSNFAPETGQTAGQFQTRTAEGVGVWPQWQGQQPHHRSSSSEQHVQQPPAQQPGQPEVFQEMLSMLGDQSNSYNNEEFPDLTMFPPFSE", "UniProt Q16539": "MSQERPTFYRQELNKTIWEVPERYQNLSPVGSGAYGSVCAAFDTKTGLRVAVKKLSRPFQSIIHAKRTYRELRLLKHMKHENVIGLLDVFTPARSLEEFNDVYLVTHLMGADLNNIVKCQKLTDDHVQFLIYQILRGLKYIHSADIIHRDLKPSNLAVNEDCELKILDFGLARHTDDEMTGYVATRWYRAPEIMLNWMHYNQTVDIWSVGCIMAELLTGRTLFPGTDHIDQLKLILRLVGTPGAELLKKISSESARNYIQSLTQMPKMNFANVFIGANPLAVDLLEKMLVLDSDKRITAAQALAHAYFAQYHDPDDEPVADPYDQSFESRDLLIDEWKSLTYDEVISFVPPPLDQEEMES"}, "source": "paper PMC11133443", "key": {"[1]": {"target": "Glutathione S-transferase (GST)-tagged ARNT (UniProt P27540)", "assay": "pull-down; GST-tagged ARNT (or ARNT fragments) transfected into HEK293T cells with or without p38α plasmid; lysates incubated with glutathione sepharose beads for 1 h, washed with lysis buffer, western blot"}, "[2]": {"target": "endogenous ARNT (human (endogenous in 7209 and U87MG)) (UniProt P27540)", "assay": "co-IP; endogenous proteins in 7209 and U87MG lysates (IP lysis buffer); ARNT antibody or p38α antibody overnight at 4 °C, Protein A Dynabeads, non-specific IgG as control, western blot"}}, "note": "These are yes or no findings as the source states them, for the method shown. Binding seen in cells or lysates may run through a third protein. Some results given as binding are weak or reduced against the parent protein; the word gives no strength.", "data": [{"substance": "p38α (from UniProt Q16539 1-360)", "values": [{"measurement": "binding", "setting": "[1]", "result": "binds"}]}, {"substance": "endogenous p38α (from UniProt Q16539 1-360)", "values": [{"measurement": "binding", "setting": "[2]", "result": "binds"}]}]}
